{"source": "paper PMC8575775", "about": "“Structural basis of the interaction between SETD2 methyltransferase and hnRNP L paralogs for governing co-transcriptional splicing” (Nature Communications, 2021)", "assay_in_all_cases": "pull-down; Halo-tagged bait expressed in 293T cells, captured from extracts on Magne HaloTag beads (wash 300 mM NaCl), eluted with TEV protease; endogenous preys seen by western blotting and silver staining; for SETD2CΔSRI with and without RNase treatment", "key": {"[1]": {"molecular_target": "T1, Halo-SETD2C (1404–2564) (human) (UniProt Q9BYW2)", "T1 sequence": "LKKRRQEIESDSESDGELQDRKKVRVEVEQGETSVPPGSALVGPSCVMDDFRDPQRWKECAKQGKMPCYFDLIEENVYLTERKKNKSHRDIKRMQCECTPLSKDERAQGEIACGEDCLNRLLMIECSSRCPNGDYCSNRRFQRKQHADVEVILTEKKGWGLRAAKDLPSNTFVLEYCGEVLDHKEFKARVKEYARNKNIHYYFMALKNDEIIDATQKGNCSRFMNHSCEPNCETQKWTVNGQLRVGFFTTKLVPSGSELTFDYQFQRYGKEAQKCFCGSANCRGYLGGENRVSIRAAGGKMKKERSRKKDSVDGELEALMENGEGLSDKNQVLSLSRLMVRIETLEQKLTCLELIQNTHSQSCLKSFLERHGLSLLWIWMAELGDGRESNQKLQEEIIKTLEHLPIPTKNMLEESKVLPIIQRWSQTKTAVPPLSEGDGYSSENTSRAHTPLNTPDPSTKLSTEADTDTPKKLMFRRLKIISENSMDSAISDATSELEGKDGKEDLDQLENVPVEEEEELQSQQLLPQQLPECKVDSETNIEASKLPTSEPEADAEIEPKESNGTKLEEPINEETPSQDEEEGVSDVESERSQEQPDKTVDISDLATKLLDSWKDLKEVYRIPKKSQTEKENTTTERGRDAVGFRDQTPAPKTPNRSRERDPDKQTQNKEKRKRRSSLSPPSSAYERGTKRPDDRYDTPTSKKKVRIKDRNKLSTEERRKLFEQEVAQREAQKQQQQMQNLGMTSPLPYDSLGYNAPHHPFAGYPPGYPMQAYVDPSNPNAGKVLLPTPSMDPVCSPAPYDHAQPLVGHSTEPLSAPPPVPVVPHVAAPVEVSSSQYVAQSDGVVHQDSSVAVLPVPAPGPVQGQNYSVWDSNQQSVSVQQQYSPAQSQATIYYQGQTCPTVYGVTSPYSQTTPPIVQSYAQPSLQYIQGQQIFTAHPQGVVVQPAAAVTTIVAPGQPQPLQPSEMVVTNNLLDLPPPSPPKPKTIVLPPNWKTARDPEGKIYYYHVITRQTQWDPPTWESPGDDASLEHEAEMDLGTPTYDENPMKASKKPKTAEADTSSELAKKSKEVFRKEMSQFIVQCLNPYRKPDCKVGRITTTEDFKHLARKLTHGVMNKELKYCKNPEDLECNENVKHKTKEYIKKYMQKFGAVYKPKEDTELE"}, "[2]": {"molecular_target": "T2, Halo-SETD2C L2188A L2189A (human) (UniProt Q9BYW2)", "T2 sequence": "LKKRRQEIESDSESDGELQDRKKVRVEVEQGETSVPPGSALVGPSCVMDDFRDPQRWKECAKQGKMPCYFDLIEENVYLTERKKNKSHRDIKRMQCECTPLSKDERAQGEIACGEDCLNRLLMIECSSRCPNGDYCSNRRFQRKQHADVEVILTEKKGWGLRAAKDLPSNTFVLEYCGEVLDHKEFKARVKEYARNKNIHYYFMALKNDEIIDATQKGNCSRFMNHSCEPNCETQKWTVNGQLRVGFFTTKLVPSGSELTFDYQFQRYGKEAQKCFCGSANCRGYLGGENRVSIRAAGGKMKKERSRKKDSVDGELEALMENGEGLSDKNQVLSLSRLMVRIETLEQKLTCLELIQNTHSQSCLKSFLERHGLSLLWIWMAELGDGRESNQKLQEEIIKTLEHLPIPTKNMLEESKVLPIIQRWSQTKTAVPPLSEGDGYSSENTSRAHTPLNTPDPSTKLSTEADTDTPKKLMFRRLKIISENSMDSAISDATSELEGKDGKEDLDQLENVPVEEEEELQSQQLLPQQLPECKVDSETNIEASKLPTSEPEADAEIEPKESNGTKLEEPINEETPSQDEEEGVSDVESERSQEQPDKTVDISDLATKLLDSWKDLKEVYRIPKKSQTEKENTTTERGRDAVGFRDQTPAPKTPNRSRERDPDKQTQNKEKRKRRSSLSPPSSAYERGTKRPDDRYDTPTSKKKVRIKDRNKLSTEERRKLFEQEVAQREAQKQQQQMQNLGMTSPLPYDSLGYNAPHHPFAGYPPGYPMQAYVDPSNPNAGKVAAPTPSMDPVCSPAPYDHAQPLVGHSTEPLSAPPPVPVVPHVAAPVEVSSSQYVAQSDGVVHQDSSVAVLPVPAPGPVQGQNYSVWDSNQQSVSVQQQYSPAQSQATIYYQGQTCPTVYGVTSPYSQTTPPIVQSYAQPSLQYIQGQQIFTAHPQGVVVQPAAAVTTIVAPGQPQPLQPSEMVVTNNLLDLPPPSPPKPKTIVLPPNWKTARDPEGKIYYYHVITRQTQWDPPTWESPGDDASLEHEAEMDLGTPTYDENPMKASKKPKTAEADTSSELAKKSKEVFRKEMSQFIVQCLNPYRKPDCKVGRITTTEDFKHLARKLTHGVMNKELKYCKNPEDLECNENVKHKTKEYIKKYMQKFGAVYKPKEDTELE"}, "[3]": {"molecular_target": "T3, Halo-SETD2CΔSHI (Δ2164–2213) (human) (UniProt Q9BYW2)", "T3 sequence": "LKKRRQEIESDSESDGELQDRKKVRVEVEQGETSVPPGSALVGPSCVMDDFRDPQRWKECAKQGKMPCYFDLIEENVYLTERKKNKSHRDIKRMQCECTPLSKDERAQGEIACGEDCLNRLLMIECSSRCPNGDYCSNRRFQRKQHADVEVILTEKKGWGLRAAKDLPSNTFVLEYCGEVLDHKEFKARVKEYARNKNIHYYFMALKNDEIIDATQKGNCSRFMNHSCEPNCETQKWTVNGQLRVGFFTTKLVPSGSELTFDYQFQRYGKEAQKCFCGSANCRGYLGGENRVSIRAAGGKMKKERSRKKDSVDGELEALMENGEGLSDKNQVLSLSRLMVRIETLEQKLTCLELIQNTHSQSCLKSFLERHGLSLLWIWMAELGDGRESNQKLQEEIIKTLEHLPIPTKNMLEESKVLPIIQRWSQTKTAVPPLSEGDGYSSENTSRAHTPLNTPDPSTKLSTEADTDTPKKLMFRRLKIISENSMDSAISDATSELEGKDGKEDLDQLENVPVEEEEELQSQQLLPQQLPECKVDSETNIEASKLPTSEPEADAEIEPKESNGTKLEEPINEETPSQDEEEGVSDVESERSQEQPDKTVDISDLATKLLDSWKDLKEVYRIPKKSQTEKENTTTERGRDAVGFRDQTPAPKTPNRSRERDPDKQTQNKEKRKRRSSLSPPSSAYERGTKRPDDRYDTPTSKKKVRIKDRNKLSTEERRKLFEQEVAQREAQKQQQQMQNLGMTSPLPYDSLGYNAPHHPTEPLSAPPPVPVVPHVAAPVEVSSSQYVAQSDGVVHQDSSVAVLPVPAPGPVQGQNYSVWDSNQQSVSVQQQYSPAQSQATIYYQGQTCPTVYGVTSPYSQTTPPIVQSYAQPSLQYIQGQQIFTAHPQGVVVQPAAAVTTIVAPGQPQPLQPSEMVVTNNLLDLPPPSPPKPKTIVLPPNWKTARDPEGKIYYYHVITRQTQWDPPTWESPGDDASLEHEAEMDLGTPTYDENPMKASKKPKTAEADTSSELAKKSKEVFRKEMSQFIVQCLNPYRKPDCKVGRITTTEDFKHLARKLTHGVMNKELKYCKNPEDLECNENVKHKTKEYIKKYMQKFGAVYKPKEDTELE"}}, "note": "No constants are given. Whether binding was seen depends on the method and setting. In cells and extracts the contact can be indirect. Some entries that bind do so weakly or less than the wild type.", "data": [{"binder": "hnRNP L (endogenous) (protein, UniProt P14866 1-589) MSRRLLPRAEKRRRRLEQRQQPDEQRRRSGAMVKMAAAGGGGGGGRYYGGGSEGGRAPKRLKTDNAGDQHGGGGGGGGGAGAAGGGGGGENYDDPHKTPASPVVHIRGLIDGVVEADLVEALQEFGPISYVVVMPKKRQALVEFEDVLGACNAVNYAADNQIYIAGHPAFVNYSTSQKISRPGDSDDSRSVNSVLLFTILNPIYSITTDVLYTICNPCGPVQRIVIFRKNGVQAMVEFDSVQSAQRAKASLNGADIYSGCCTLKIEYAKPTRLNVFKNDQDTWDYTNPNLSGQGDPGSNPNKRQRQPPLLGDHPAEYGGPHGGYHSHYHDEGYGPPPPHYEGRRMGPPVGGHRRGPSRYGPQYGHPPPPPPPPEYGPHADSPVLMVYGLDQSKMNCDRVFNVFCLYGNVEKVKFMKSKPGAAMVEMADGYAVDRAITHLNNNFMFGQKLNVCVSKQPAIMPGQSYGLEDGSCSYKDFSESRNNRFSTPEQAAKNRIQHPSNVLHFFNAPLEVTEENFFEICDELGVKRPSSVKVFSGKSERSSSGLLEWESKSDALETLGFLNHYQMKNPNGPYPYTLKLCFSTAQHAS", "values": [{"measurement": "binding", "setting": "[1]", "value": "binds"}, {"measurement": "binding", "setting": "[2]", "value": "no binding"}, {"measurement": "binding", "setting": "[3]", "value": "no binding"}]}]}
